## Results of single-concentration screens

Protein sequences, listed by entry. Tags and fused reporters are not part of them. Residues count along the entry.
UniProt Q4DA54, 1-478: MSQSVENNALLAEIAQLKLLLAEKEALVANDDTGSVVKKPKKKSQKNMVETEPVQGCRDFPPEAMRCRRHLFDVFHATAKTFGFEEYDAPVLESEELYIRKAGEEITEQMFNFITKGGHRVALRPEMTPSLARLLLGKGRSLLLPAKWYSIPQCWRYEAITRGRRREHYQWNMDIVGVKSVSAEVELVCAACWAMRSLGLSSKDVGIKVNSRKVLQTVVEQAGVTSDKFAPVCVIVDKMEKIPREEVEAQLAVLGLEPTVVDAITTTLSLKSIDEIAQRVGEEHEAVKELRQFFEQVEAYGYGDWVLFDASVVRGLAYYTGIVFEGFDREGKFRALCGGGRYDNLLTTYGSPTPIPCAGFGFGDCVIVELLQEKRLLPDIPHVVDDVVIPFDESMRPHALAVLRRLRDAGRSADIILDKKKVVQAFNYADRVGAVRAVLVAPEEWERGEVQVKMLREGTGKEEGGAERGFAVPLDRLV
UniProt A4I591, 1-473: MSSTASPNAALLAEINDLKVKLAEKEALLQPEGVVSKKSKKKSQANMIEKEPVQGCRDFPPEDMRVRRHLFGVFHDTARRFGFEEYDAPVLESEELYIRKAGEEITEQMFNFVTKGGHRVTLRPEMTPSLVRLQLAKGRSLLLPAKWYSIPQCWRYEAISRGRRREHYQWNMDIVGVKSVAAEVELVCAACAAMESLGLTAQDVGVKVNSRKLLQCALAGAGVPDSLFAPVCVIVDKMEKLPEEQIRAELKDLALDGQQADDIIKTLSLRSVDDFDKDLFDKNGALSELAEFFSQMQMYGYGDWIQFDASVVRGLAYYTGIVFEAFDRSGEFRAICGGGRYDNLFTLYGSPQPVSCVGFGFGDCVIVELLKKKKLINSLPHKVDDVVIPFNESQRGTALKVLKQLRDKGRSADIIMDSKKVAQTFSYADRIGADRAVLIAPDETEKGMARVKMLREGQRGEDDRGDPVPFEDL

The filed quantity is “Percent Effect” (%). The record does not define 0% and 100%; most values in the screen are far below 50% and negative numbers occur (in some assays of this library far below -100). The compounds are a random part of those screened.

A: 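Assay of Toxoplasma gondii numbers, read through their beta-galactosidase reporter with a colour substrate. Compounds at 10 µM. The record gives no direction; the compounds picked for IC50 retests had high values, so higher reads as fewer parasites. Size under these conditions: about 67,000 compounds, about 260 of them at 50% or above in at least one test.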
B: 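Enzyme assay of histidyl-tRNA synthetase; the read-out is not stated. Target: Histidine-tRNA ligase, Trypanosoma cruzi CL Brener (UniProt Q4DA54). Compounds at 30 µM. Higher reads as stronger inhibition (inferred: compounds with an IC50 in retests scored well above the rest). Size under these conditions: about 69,000 compounds, about 31 of them at 50% or above in at least one test.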
C: 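Histidine-tRNA ligase, Leishmania infantum (UniProt A4I591). Enzyme assay of histidyl-tRNA synthetase; the read-out is not stated. Tested at 30 µM. Higher reads as stronger inhibition (inferred: compounds with an IC50 in retests scored well above the rest). The assay is labelled LdHisRS but filed under L. infantum. Size under these conditions: about 69,000 compounds, about 410 of them at 50% or above in at least one test.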
D: 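Whole-parasite assay of Trypanosoma brucei over 72 hours; the read-out is not stated. Compounds at 30 µM. The record gives no direction; compounds that gave an IC50 in retests scored well above the rest, so higher reads as stronger inhibition. Values scatter widely below zero; nearly all retest evidence comes from the higher of the two concentrations used. Of about 64,000 compounds tested this way, about 940 (1.5%) reached 50% or more in at least one test.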

* COCC1CC2(CCNCC2)CN1c1ncccn1 (stereo unspecified) | A: -0.2254%; B: 2.941%; C: 20%; D: 5.536%
* CCCNC(=O)C(C)Nc1ccc(COCC)cc1 (stereo unspecified) | A: -1.817%; B: -2.564%; C: 6.349%; D: -2.605%
* O=C(Cc1ccsc1)N1C[C@H]2CCC[C@@]2(COCc2ccccn2)C1 | B: 3.518%; C: 7.921%
* NC(=O)C(NC(=O)c1cc(Br)c[nH]1)c1ccccc1 (stereo unspecified) | A: -9.783%; B: -2.89%; C: 25.33%; D: -11.81%
* Cc1ncc(C(=O)N2CCC(C(=O)NC3CCCC3)C2)c(C)n1 (stereo unspecified) | A: 0.5958%; B: -16.67%; C: 4.225%; D: -19.61%
* CCOCC1CN(Cc2ccoc2)Cc2nn(C)cc21 (stereo unspecified) | B: 2.439%; C: 15.38%
* CN1CCN(C(=O)c2nc3c(s2)CCCN3C(=O)C2CC2)CC1.O=C(O)C(F)(F)F | A: 13.67%; D: -37.77%
* CC(=O)c1c(C)nn(CC(=O)N2CCCC2c2ccc(C(N)=O)s2)c1C (stereo unspecified) | A: 8.58%; B: 2.632%; C: 6.452%; D: 6.349%
* NC(=O)C1CCN(C(=O)NCCNc2ccccn2)CC1 | A: 0.8178%; B: 7.289%; C: 22.02%
* CCC(Nc1nc(CCN)nc2ccccc12)c1cc(C)ccn1 (stereo unspecified) | A: 15.2%; B: 5.882%; C: 16.67%; D: -52.44%
* Cc1cc(C)c2[nH]c(C)c(CC(=O)N(C)CCN(C)C)c2c1 | B: 9.04%; C: 6.993%
* Cn1nc(CNC(=O)C2COc3ccccc3O2)cc1C1CC1 (stereo unspecified) | A: -1.552%; B: 0%; C: 0.9709%; D: -45.93%
* CN(Cc1nnc(C2CC2)n1C)C1CCN(CCc2ccccc2)C1 (stereo unspecified) | A: 9.799%; B: 0%; C: 6.452%; D: -27.77%
* CN(C)c1ccc(C(=O)N2CCCC2c2ccc(Cl)cc2)cc1 (stereo unspecified) | A: 4.054%; B: 9.036%; C: 10.99%; D: -45.01%
* CN1C(=O)COc2ccc(C(=O)Cn3cnc4ccsc4c3=O)cc21 | B: 12.87%; C: 13.04%; D: -33.14%
* O=C(c1c[nH]nn1)N1CCCC1C1CCCCC1 (stereo unspecified) | A: -10.99%; B: 7.447%; C: 24.29%; D: -26%
* [H][C@@]12CCCN1CCCN(c1nc(C(C)(C)C)nc3c1cnn3C)C2 | A: 1.273%; D: -36.2%
* O=C(CCc1ccccc1)NCC1CCN(Cc2cccs2)CC1 | A: 22.62%; B: 9.548%; C: 17.98%; D: 11.84%
* COCc1n[nH]c2c1CN(Cc1ccccn1)C2 | B: 4.124%; C: 18%
* Cn1ccnc1C1CCN(S(=O)(=O)c2ccc3c(c2)OCCO3)CC1 | B: 18.39%; C: 9.677%; D: -7.329%
* Cc1cc(NC(=O)NC2CCN(C(C)C)CC2)c2ncccc2c1 | A: 20.89%; B: 6.748%; C: 19.75%; D: 56.47%
* CCn1nc(C)cc1C(=O)OCCNc1ncnc2ccccc12 | A: 4.573%; B: -1.02%; C: 16.67%; D: -3.435%
* Cc1cn(CC(=O)NC2CCC(C(=O)O)CC2)c2ccccc12 (stereo unspecified) | A: -7.739%; B: 2.116%; C: 12.12%; D: -16.41%
* CC(C)C(=O)NCCNC(=O)C12CCC(=O)N1c1cc(Cl)ccc1S2 (stereo unspecified) | A: -0.6965%; B: 2.793%; C: 2.632%; D: -8.435%
* O=C(O)[C@@H]1CN(C(=O)c2ccc(Cl)cc2)C[C@H]1c1cccc(F)c1 | A: 12.91%; B: 4.02%; C: 7.447%; D: -39.21%
* O=C(COCC(=O)N1CCCCCC1)NCc1cccc(Br)c1 | A: -0.2436%; B: 3.509%; C: 5.357%; D: -26.27%

The first 3 entries again:

COCC1CC2(CCNCC2)CN1c1ncccn1 (stereo unspecified) read A: -0.2254%; B: 2.941%; C: 20%; D: 5.536%.
CCCNC(=O)C(C)Nc1ccc(COCC)cc1 (stereo unspecified) read A: -1.817%; B: -2.564%; C: 6.349%; D: -2.605%.
O=C(Cc1ccsc1)N1C[C@H]2CCC[C@@]2(COCc2ccccn2)C1 read B: 3.518%; C: 7.921%.

The values are deposited in ChEMBL (CHEMBL3988442, “University of Dundee, Small-Polar-MMV Screening Library” (2021)).